# Source: the supplement of paper PMC10849652
# The chains behind the UniProt entries cited, without tags or fusion partners. Where a name states a change or a piece, a line headed by the entry shows the natural chain unless it says otherwise.
# UniProt Q86WR0: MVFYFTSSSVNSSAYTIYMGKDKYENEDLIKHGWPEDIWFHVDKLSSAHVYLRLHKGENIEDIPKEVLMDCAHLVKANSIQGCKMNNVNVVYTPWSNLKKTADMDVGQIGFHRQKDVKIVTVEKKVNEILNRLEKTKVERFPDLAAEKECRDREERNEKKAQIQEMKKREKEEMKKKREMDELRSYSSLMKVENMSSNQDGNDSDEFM
# UniProt Q9H6E4: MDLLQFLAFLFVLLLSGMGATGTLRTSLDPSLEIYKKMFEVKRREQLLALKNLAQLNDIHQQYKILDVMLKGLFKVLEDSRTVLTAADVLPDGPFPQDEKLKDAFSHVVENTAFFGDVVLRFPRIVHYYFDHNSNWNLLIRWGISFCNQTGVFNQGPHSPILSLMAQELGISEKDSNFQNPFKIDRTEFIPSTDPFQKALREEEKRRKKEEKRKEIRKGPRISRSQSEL
# UniProt Q4G0S7: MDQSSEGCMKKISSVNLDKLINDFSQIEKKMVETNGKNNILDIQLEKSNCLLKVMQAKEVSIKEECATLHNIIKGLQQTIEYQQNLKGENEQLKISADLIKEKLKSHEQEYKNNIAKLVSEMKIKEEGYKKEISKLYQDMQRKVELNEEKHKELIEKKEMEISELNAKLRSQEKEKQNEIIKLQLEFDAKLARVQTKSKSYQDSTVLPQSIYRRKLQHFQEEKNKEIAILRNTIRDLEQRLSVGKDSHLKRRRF
# UniProt Q8IVM0: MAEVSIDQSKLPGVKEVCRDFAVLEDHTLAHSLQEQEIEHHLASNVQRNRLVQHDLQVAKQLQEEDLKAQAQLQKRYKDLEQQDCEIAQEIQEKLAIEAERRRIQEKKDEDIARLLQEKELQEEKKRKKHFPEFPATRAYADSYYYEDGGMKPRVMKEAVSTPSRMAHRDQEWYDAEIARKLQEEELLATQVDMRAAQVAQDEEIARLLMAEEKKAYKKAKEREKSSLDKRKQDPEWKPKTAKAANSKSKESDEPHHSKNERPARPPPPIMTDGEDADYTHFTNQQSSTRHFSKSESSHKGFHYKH
# UniProt O60583: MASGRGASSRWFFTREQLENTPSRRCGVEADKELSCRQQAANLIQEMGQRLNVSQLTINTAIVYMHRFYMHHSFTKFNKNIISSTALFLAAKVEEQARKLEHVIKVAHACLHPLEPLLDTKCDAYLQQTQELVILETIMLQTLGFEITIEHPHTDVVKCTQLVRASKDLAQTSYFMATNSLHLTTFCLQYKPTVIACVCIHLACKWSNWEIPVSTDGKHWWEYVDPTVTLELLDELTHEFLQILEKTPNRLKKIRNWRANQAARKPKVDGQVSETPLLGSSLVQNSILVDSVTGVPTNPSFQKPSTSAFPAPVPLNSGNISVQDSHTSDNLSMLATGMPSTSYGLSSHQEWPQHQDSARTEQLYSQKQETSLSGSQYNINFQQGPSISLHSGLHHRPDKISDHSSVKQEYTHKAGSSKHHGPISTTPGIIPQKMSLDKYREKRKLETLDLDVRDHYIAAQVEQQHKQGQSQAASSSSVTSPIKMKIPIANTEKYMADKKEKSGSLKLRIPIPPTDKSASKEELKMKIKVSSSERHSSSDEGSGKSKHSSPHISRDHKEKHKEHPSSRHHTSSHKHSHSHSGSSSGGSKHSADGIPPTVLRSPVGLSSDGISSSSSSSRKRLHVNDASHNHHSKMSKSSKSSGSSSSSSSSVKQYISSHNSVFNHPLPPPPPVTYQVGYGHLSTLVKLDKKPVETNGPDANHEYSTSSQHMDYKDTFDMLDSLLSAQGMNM
# UniProt O14936: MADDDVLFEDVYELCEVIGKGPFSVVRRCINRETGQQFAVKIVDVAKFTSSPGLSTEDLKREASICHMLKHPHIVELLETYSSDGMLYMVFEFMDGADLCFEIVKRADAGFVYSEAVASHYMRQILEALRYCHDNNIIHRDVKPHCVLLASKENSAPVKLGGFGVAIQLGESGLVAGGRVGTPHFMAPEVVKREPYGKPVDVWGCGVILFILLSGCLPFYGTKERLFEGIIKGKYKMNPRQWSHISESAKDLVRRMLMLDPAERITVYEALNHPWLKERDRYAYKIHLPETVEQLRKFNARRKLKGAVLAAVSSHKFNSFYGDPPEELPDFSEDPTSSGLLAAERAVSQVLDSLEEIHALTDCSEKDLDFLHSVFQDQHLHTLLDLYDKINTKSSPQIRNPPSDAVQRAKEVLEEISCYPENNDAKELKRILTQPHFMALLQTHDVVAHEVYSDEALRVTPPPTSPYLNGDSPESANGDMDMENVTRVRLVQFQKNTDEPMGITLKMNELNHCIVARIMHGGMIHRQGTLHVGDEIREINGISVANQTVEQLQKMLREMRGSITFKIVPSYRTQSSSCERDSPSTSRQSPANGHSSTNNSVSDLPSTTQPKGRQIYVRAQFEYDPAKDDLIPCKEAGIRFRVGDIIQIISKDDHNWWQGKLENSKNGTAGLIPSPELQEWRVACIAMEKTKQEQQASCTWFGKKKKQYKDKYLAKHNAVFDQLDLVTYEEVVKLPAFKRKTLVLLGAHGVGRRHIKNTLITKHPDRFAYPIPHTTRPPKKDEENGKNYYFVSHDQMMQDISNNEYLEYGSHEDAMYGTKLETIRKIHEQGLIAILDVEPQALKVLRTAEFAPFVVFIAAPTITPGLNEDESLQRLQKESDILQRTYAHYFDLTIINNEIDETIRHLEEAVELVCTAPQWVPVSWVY
# UniProt Q96BQ5: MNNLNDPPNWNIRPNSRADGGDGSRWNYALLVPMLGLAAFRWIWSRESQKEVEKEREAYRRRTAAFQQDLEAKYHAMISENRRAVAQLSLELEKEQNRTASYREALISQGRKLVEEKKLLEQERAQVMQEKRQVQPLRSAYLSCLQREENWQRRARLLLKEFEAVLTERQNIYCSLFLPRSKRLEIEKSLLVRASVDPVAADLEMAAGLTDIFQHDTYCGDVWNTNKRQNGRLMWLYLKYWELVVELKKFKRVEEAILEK
# UniProt Q96A19: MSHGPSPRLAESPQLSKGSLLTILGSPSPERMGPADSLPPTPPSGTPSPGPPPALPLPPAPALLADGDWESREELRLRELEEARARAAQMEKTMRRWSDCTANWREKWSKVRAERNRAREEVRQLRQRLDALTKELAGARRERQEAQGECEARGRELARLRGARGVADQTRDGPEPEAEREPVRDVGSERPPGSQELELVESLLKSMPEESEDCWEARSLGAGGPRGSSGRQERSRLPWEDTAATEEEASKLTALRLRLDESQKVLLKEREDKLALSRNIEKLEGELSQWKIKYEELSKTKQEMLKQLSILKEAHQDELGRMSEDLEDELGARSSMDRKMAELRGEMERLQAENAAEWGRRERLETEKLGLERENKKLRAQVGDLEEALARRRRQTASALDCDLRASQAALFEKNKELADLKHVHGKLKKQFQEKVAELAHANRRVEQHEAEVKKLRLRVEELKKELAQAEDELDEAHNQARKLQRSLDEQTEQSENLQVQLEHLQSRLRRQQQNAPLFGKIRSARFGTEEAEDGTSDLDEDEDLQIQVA
# UniProt Q9P031: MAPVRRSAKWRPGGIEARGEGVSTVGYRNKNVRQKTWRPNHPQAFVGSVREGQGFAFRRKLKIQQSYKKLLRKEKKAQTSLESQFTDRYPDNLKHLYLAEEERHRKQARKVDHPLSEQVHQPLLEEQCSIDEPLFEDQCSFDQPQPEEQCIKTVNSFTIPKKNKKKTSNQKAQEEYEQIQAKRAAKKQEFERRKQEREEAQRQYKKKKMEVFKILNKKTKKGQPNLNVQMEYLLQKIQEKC
# UniProt Q9HC52: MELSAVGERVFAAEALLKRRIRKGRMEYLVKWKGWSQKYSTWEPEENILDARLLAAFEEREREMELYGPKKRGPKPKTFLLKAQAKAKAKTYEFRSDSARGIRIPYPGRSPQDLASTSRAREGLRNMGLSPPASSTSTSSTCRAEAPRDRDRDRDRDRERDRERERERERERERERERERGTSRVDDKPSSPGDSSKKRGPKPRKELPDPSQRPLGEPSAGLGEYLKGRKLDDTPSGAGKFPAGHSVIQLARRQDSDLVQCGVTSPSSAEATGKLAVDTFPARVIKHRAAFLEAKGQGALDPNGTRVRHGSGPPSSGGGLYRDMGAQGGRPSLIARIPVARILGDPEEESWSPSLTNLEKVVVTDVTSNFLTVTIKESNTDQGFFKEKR
# UniProt P33681, whole entry, looked up: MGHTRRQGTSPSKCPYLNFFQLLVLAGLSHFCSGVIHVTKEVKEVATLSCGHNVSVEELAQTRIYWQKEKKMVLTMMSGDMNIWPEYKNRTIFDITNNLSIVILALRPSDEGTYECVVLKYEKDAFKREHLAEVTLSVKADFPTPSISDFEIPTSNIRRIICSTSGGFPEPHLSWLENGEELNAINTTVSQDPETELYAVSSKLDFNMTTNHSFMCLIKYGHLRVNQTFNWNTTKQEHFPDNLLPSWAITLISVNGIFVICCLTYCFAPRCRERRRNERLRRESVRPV
# UniProt P42575: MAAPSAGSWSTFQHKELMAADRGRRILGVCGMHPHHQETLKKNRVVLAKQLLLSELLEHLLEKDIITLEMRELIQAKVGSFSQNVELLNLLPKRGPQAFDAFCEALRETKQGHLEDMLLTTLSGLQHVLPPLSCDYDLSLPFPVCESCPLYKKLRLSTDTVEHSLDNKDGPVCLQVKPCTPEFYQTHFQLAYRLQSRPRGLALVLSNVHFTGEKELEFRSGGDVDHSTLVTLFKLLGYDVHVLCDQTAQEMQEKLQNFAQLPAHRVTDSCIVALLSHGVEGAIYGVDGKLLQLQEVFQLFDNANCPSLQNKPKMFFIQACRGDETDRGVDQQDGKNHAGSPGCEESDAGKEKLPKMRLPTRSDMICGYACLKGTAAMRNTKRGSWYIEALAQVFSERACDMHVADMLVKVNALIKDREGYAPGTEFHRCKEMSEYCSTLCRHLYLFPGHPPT
# UniProt P0C221: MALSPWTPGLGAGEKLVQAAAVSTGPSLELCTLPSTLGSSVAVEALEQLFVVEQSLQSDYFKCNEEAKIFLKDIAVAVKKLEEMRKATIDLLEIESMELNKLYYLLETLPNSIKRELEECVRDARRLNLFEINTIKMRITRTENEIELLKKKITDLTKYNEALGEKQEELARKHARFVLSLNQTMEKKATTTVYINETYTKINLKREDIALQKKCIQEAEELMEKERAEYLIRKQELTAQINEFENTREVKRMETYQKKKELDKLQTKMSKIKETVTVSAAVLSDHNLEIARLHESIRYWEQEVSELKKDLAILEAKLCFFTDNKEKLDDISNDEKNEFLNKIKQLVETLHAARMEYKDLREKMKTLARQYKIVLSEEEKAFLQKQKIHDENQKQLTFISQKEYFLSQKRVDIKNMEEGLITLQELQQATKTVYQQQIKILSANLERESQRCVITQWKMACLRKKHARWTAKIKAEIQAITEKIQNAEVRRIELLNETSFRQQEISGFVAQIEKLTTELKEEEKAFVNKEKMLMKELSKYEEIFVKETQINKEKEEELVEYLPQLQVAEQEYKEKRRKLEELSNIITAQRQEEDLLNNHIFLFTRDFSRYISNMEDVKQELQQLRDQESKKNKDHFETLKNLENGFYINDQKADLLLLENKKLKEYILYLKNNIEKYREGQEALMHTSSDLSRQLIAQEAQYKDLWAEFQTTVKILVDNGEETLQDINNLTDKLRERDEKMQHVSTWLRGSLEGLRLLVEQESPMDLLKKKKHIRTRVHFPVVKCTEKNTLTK
# UniProt Q2TAC2: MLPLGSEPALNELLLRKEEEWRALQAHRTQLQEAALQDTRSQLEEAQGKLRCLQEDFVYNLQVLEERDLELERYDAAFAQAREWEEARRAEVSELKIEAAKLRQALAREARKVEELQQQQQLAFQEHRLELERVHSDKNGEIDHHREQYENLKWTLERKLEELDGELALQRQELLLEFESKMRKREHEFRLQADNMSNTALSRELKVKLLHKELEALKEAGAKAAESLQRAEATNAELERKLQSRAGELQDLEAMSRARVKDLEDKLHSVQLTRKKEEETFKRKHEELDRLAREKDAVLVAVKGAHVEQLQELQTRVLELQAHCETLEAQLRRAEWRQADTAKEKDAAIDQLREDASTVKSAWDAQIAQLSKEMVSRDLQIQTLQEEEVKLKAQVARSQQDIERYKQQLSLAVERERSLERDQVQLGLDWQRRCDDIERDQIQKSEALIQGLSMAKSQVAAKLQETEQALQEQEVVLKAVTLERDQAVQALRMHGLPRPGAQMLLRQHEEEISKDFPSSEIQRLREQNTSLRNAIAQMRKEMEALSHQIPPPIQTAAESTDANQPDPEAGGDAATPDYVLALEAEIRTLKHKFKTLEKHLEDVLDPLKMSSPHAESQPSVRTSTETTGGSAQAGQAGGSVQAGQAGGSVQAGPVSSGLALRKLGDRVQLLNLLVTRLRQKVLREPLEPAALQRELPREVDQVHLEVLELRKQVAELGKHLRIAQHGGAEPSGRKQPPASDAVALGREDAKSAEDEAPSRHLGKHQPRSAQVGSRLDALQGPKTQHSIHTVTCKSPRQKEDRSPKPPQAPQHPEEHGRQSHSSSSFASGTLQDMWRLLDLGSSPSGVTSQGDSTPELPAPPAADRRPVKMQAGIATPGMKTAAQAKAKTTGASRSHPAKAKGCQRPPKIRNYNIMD
# This is one part of the list.
# Columns and labels:
# Test in all cases: log2 fold change, soluble protein after heating vs DMSO (PISA); higher = thermal stabilisation; K562 lysate, 10 uM; active = over 0.2 and 3.5 SD of the protein, either way, in both replicates (recomputed)
# [1] = compound: CCCS(=O)(=O)Nc1ccc(F)c(C(=O)c2c[nH]c3ncc(-c4ccc(Cl)cc4)cc23)c1F [vemurafenib]
# In short: (§1)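 Pellets of K562 cells were dounce-homogenised in PBS pH 7.4 with 1 mM MgCl2, and the crude extract was held at 1 mg/mL protein for a 30 min treatment with 10 μM compound. Aliquots were heated for 3 min over 48°C-58°C and pooled before NP-40 was added to 0.5% at 4°C. The supernatant from 21,000xg for 90 min was quantified by TMTpro 16plex LC-MS/MS with channel sums equalised. Values are reported from duplicates as log-two fold change in thermal stability relative to solvent controls.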
# [2] = compound: CCCS(=O)(=O)Nc1ccc(F)c(C(=O)c2c[nH]c3ncc(Cl)cc23)c1F
# In short: as §1
# [3] = compound: CCN(CCCOc1ccc2c(Nc3cc(CC(=O)Nc4cccc(F)c4)[nH]n3)ncnc2c1)CCOP(=O)(O)O [barasertib]
# In short: as §1
# [4] = compound: CC[C@@H]1C(=O)N(C)c2cnc(Nc3ccc(C(=O)NC4CCN(C)CC4)cc3OC)nc2N1C1CCCC1
# In short: as §1
# [5] = compound: CC[C@@H]1C(=O)N(C)c2cnc(Nc3ccc(C(=O)N[C@H]4CC[C@H](N5CCN(CC6CC6)CC5)CC4)cc3OC)nc2N1C(C)C [volasertib]
# In short: as §1
# [6] = compound: CCn1c(C(=O)N(C2CC2)C2CC2)cc2c3c(ncn3C)c(Nc3cc(C)n(C)n3)nc21
# In short: as §1
# [7] = compound: CCn1cc(-c2ccnc3[nH]c(-c4cccc(CN(C)C)c4)cc23)c(-c2ccc(NC(=O)N(C)C)cc2)n1
# In short: as §1
# [8] = compound: CN1CCC(CNc2ccc3ncc(-c4cccc(OC(F)(F)F)c4)n3n2)CC1
# In short: as §1
# [9] = compound: CN1CCN(CCOc2cc(OC3CCOCC3)c3c(Nc4c(Cl)ccc5c4OCO5)ncnc3c2)CC1 [saracatinib]
# In short: as §1
# [10] = compound: CN1CCN(c2nc(C3=C(c4c[nH]c5ccccc45)C(=O)NC3=O)c3ccccc3n2)CC1 [sotrastaurin]
# In short: as §1
# [11] = compound: CN1CC[C@H](c2c(O)cc(O)c3c(=O)cc(-c4ccccc4Cl)oc23)[C@H](O)C1 [alvocidib]
# In short: as §1
# [12] = compound: CN1CCc2c(c3ccccc3n2Cc2ccc(C(=O)NO)cc2)C1 [Tubastatin A]
# In short: as §1
# [13] = compound: CNC(=O)C1=CC=CC=C1NC2=NC(=NC=C2Cl)NC3=C(C=C(C=C3)N4CCOCC4)OC
# In short: as §1
# [14] = compound: CNC(=O)c1ccc(Nc2ncc(C(F)(F)F)c(NCc3nccnc3N(C)S(C)(=O)=O)n2)cc1 [defactinib]
# In short: as §1
# [15] = compound: CNc1nc(-c2ccc3c(N)n[nH]c3c2)cc(N2C[C@@H](C(=O)NC3CCCCC3)CC[C@H]2C)n1
# In short: as §1
# [16] = compound: COC(=O)N[C@@H](C)CNc1nccc(-c2cn(C(C)C)nc2-c2cc(Cl)cc(NS(C)(=O)=O)c2F)n1 [encorafenib]
# In short: as §1
# [17] = compound: COC(=O)[C@H](CCSC)NC(=O)C1=C(C=C(C=C1)NC[C@H](CS)N)C2=CC=CC=C2
# In short: as §1
# [18] = compound: COc1cc(Nc2ncc3c(n2)-c2ccc(Cl)cc2C(c2c(F)cccc2OC)=NC3)ccc1C(=O)O [alisertib]
# In short: as §1
# [19] = compound: COc1cc2nc(-c3cc(F)ccc3O)nc(N[C@@H]3CNC[C@H]3C(C)(C)O)c2cc1OC
# In short: as §1
# [20] = compound: COc1cc2ncnc(Nc3ccc(F)c(Cl)c3)c2cc1OCCCN1CCOCC1 [gefitinib]
# In short: as §1
Target,log2 fold change [1],log2 fold change [2],log2 fold change [3],log2 fold change [4],log2 fold change [5],log2 fold change [6],log2 fold change [7],log2 fold change [8],log2 fold change [9],log2 fold change [10],log2 fold change [11],log2 fold change [12],log2 fold change [13],log2 fold change [14],log2 fold change [15],log2 fold change [16],log2 fold change [17],log2 fold change [18],log2 fold change [19],log2 fold change [20]
CARS2 (UniProt Q9HA77),inactive: 0.033,inactive: 0.03,inactive: 0,inactive: -0.082,inactive: -0.071,inactive: -0.001,inactive: -0.02,inactive: 0.073,inactive: 0.058,inactive: -0.019,inactive: 0.025,inactive: 0.023,inactive: -0.013,inactive: 0.023,inactive: -0.04,inactive: 0.016,inactive: 0.054,inactive: -0.045,inactive: 0.051,inactive: -0.068
CCDC47 (UniProt Q96A33),inactive: 0.011,inactive: 0.032,inactive: 0.002,inactive: 0.024,inactive: 0.014,inactive: 0.018,inactive: -0.02,inactive: -0.09,inactive: -0.003,inactive: 0.007,inactive: 0.009,inactive: 0.016,inactive: -0.015,inactive: 0.004,inactive: -0.028,inactive: -0.045,inactive: -0.037,inactive: 0.037,inactive: -0.035,inactive: -0.011
CCDC58 (UniProt Q4VC31),inactive: 0.005,inactive: 0,inactive: 0.006,inactive: 0.049,inactive: 0.039,inactive: 0.016,inactive: 0.151,inactive: -0.065,inactive: -0.013,inactive: 0.022,inactive: 0.06,inactive: 0.041,inactive: 0.046,inactive: -0.018,inactive: 0.013,inactive: -0.017,inactive: -0.076,inactive: 0.01,inactive: -0.021,inactive: 0.013
CCDC25 (UniProt Q86WR0),inactive: -0.033,inactive: 0.008,inactive: 0.01,inactive: 0.027,inactive: 0.005,inactive: -0.023,active: 0.581,inactive: -0.079,inactive: 0.007,inactive: -0.009,inactive: 0.132,inactive: 0,inactive: -0.012,inactive: -0.025,inactive: 0.075,inactive: 0.008,inactive: 0.083,inactive: -0.027,inactive: -0.005,inactive: 0.01
CCDC134 (UniProt Q9H6E4),inactive: 0.013,inactive: 0.001,inactive: -0.131,inactive: 0.104,inactive: -0.017,inactive: 0.017,inactive: 0.004,inactive: -0.017,inactive: 0.02,inactive: 0,inactive: -0.001,inactive: 0.03,inactive: -0.001,inactive: 0.019,inactive: -0.023,inactive: 0.033,inactive: -0.056,inactive: 0.016,inactive: -0.001,inactive: 0.022
CCDC9 (UniProt Q9Y3X0),inactive: 0.003,inactive: -0.001,inactive: -0.021,inactive: 0.066,inactive: -0.007,inactive: -0.057,inactive: 0.054,inactive: 0.039,inactive: 0.001,inactive: 0.039,inactive: 0.015,inactive: 0.009,inactive: 0.003,inactive: 0.035,inactive: 0.039,inactive: 0.005,inactive: -0.027,inactive: -0.044,inactive: -0.009,inactive: -0.043
CCT3 (UniProt E9PM09),inactive: 0.225,inactive: -0.166,inactive: 0.08,inactive: 0.051,inactive: 0.054,inactive: 0.092,,,inactive: -0.124,,,inactive: 0.034,inactive: 0.121,inactive: -0.197,inactive: 0.055,inactive: -0.125,inactive: -0.153,inactive: -0.011,inactive: 0.071,inactive: 0.041
CCDC152 (UniProt Q4G0S7),inactive: -0.051,,,,,,,,inactive: 0.032,inactive: 0.12,,,inactive: -0.067,inactive: 0.062,inactive: 0.056,,,,,
CCDC13 (UniProt Q8IYE1),inactive: 0.196,inactive: 0,inactive: 0.731,inactive: 0.305,inactive: 0.017,,inactive: 0.389,inactive: -0.013,inactive: -0.093,inactive: 0.126,inactive: -0.02,,,inactive: 0.051,inactive: 0.669,inactive: -0.089,inactive: 0.093,inactive: -0.039,inactive: -0.085,inactive: -0.044
CCDC144A (UniProt A2RUR9),inactive: 0.122,,inactive: 0.04,inactive: 0.14,,,,,inactive: 0.087,inactive: 0.235,,,inactive: -0.12,inactive: -0.142,inactive: -0.014,inactive: 0.01,inactive: 0.007,,,
CCDC50 (UniProt Q8IVM0),,inactive: 0.183,inactive: -0.061,inactive: 0.209,inactive: 0.063,inactive: -0.051,,,,inactive: -0.127,,inactive: 0.017,inactive: -0.063,,,inactive: 0.046,inactive: -0.121,inactive: -0.031,inactive: -0.218,inactive: -0.099
CCNT2 (UniProt O60583),inactive: -0.082,inactive: 0.124,inactive: -0.008,inactive: 0.05,inactive: -0.128,inactive: 0.176,,,inactive: 0.049,inactive: -0.191,,inactive: -0.115,,inactive: 0.034,inactive: 0.018,inactive: -0.027,inactive: -0.033,inactive: 0.112,inactive: -0.051,inactive: -0.111
CCHCR1 isoform 2 (UniProt Q8TD31),inactive: -0.017,,inactive: -0.017,inactive: -0.079,,,inactive: -0.044,inactive: 0.031,,inactive: 0.008,inactive: 0.068,,inactive: 0.106,inactive: -0.007,,inactive: 0.056,inactive: -0.111,inactive: 0.173,,inactive: 0.203
CASK (UniProt O14936),inactive: -0.006,inactive: 0.058,inactive: 0.033,inactive: 0.083,inactive: 0.026,inactive: -0.006,inactive: 0.113,inactive: -0.008,inactive: -0.043,inactive: 0.016,inactive: 0.093,inactive: 0.007,inactive: -0.059,inactive: 0.043,inactive: -0.222,inactive: 0.006,inactive: -0.049,,inactive: 0.022,
CCDC127 (UniProt Q96BQ5),,inactive: -0.002,inactive: 0.058,inactive: -0.109,inactive: -0.025,inactive: 0.034,inactive: -0.143,inactive: 0.121,inactive: 0.035,inactive: 0.026,inactive: -0.001,inactive: 0.026,inactive: 0.008,,inactive: 0.006,inactive: 0.082,inactive: -0.143,,inactive: 0.04,
CCDC102A (UniProt Q96A19),inactive: -0.184,,inactive: 0.108,inactive: 0.079,,,,,,inactive: 0.019,,,inactive: -0.019,inactive: 0.047,,inactive: -0.243,inactive: 0.057,,,
CCNE1 (UniProt P24864),inactive: -0.018,inactive: 0.037,inactive: -0.02,inactive: 0.211,inactive: 0.004,inactive: 0.004,inactive: -0.055,inactive: 0.06,inactive: 0.021,inactive: -0.15,inactive: 0.04,inactive: -0.023,,inactive: -0.04,inactive: 0.104,inactive: 0,inactive: -0.079,,inactive: 0.027,
CCDC59 (UniProt Q9P031),inactive: -0.04,inactive: 0.114,inactive: 0.014,inactive: -0.04,inactive: -0.021,,inactive: 0.079,inactive: -0.013,inactive: -0.012,inactive: -0.061,inactive: -0.004,,,inactive: 0.01,inactive: 0.095,inactive: 0.075,inactive: -0.022,inactive: -0.042,inactive: 0.045,inactive: -0.026
CBX8 (UniProt Q9HC52),inactive: -0.101,,,inactive: 0.419,,,,,,inactive: -0.05,,,,inactive: -0.186,,inactive: 0.12,inactive: -0.04,,,
CARHSP1 (UniProt H3BNU9),,inactive: 0.032,inactive: 0.246,,inactive: -0.161,,inactive: 0.16,inactive: -0.522,,,inactive: -0.027,,,,,,,inactive: -0.107,inactive: -0.003,inactive: -0.213
"CCDC9, A0A2R8Y4Z8",,inactive: 0.072,inactive: 0.064,,inactive: 0.011,inactive: 0.022,,,inactive: -0.127,inactive: -0.099,,inactive: 0.197,,,inactive: 0.098,,,,inactive: -0.107,
CD80 (UniProt P33681),inactive: 0.115,inactive: -0.113,,inactive: 0.063,inactive: -0.001,inactive: -0.011,inactive: 0.239,inactive: -0.177,inactive: -0.069,inactive: 0.032,inactive: 0.071,inactive: 0,inactive: 0.014,inactive: -0.085,inactive: 0.11,inactive: 0.016,inactive: -0.082,inactive: -0.345,inactive: -0.011,inactive: -0.001
CASP2 (UniProt P42575),inactive: -0.019,inactive: 0.069,inactive: -0.05,inactive: -0.005,inactive: 0.01,inactive: 0.007,inactive: -0.092,inactive: 0.077,inactive: -0.009,inactive: -0.009,inactive: -0.031,inactive: -0.027,inactive: 0.033,inactive: 0.029,inactive: 0.011,inactive: -0.043,inactive: -0.007,inactive: -0.019,inactive: 0.001,inactive: -0.087
CCDC175 (UniProt P0C221),inactive: 0.205,inactive: 0.105,,inactive: 0.357,inactive: 0.006,,inactive: -0.424,inactive: 0.255,,,inactive: -0.135,,,inactive: -0.198,,inactive: -0.114,inactive: 0.08,,inactive: 0.151,
CD226 (UniProt Q15762),,inactive: -0.052,inactive: -0.015,,inactive: -0.034,,,,,,,,,,,,,,inactive: 0.069,
CCDC57 (UniProt Q2TAC2),inactive: 0.01,inactive: -0.028,inactive: 0.058,inactive: -0.1,inactive: 0.016,inactive: -0.028,inactive: -0.056,inactive: 0.041,inactive: -0.059,,inactive: -0.04,inactive: 0.041,,inactive: -0.057,inactive: 0.076,inactive: 0.065,inactive: -0.056,inactive: -0.008,inactive: 0.026,inactive: -0.028

# Reformatted bar-delimited: part of the list above
Target | log2 fold change [1] | log2 fold change [2] | log2 fold change [3] | log2 fold change [4] | log2 fold change [5] | log2 fold change [6] | log2 fold change [7] | log2 fold change [8] | log2 fold change [9] | log2 fold change [10] | log2 fold change [11] | log2 fold change [12] | log2 fold change [13] | log2 fold change [14] | log2 fold change [15] | log2 fold change [16] | log2 fold change [17] | log2 fold change [18] | log2 fold change [19] | log2 fold change [20]
CASK (UniProt O14936) | inactive: -0.006 | inactive: 0.058 | inactive: 0.033 | inactive: 0.083 | inactive: 0.026 | inactive: -0.006 | inactive: 0.113 | inactive: -0.008 | inactive: -0.043 | inactive: 0.016 | inactive: 0.093 | inactive: 0.007 | inactive: -0.059 | inactive: 0.043 | inactive: -0.222 | inactive: 0.006 | inactive: -0.049 |  | inactive: 0.022 | 
CCDC127 (UniProt Q96BQ5) |  | inactive: -0.002 | inactive: 0.058 | inactive: -0.109 | inactive: -0.025 | inactive: 0.034 | inactive: -0.143 | inactive: 0.121 | inactive: 0.035 | inactive: 0.026 | inactive: -0.001 | inactive: 0.026 | inactive: 0.008 |  | inactive: 0.006 | inactive: 0.082 | inactive: -0.143 |  | inactive: 0.04 | 
